In paper PMC12700555:
No constants are given. Whether binding was seen depends on the method and setting. In cells and extracts the contact can be indirect. Some results given as binding are weak or reduced against the parent protein; the word gives no strength. Values belong to the substance of their own block, whether it stands above or below them.

Protein sequences, listed by entry. Tags and fused reporters are not part of them.
UniProt P51532: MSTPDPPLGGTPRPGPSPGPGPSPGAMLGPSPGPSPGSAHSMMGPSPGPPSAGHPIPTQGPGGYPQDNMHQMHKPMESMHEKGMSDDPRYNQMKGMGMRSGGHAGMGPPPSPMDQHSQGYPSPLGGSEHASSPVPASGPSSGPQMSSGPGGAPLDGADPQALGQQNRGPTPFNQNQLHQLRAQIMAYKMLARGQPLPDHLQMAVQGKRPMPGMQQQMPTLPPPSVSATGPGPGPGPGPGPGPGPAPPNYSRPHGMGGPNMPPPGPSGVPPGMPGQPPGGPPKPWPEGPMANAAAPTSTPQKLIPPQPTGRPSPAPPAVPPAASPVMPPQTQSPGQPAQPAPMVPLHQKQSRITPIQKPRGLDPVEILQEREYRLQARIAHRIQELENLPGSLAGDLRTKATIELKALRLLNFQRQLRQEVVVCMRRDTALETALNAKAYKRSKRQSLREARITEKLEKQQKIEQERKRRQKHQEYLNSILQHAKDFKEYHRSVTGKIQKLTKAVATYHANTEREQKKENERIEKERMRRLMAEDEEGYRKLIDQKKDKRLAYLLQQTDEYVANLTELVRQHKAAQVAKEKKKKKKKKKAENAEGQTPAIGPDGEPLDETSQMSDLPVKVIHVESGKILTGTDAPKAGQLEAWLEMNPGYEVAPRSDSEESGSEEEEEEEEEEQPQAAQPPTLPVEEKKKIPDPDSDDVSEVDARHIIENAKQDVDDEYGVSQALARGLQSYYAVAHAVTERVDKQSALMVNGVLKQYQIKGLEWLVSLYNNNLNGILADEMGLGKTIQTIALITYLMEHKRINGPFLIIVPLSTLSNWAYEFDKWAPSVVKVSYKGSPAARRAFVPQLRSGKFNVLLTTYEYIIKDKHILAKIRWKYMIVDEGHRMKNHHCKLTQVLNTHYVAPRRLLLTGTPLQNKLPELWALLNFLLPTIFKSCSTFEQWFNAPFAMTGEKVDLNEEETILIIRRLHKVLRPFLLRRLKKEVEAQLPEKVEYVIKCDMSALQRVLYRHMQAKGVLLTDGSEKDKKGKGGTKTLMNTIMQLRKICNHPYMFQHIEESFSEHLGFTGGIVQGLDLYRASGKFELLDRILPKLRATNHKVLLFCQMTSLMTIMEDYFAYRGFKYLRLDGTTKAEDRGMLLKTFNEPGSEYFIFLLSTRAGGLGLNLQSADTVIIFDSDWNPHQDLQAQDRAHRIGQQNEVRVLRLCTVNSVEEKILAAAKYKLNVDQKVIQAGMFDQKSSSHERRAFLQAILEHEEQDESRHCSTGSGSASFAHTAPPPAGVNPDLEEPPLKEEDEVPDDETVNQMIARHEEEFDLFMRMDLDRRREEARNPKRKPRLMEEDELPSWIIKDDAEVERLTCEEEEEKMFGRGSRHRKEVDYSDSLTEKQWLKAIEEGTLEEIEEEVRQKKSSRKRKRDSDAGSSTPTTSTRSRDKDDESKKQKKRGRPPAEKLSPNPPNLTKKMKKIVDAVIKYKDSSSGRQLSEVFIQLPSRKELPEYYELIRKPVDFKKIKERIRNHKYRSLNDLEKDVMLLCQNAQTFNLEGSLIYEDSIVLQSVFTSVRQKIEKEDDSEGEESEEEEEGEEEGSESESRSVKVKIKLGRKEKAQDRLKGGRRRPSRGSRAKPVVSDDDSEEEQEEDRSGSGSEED
UniProt O95235: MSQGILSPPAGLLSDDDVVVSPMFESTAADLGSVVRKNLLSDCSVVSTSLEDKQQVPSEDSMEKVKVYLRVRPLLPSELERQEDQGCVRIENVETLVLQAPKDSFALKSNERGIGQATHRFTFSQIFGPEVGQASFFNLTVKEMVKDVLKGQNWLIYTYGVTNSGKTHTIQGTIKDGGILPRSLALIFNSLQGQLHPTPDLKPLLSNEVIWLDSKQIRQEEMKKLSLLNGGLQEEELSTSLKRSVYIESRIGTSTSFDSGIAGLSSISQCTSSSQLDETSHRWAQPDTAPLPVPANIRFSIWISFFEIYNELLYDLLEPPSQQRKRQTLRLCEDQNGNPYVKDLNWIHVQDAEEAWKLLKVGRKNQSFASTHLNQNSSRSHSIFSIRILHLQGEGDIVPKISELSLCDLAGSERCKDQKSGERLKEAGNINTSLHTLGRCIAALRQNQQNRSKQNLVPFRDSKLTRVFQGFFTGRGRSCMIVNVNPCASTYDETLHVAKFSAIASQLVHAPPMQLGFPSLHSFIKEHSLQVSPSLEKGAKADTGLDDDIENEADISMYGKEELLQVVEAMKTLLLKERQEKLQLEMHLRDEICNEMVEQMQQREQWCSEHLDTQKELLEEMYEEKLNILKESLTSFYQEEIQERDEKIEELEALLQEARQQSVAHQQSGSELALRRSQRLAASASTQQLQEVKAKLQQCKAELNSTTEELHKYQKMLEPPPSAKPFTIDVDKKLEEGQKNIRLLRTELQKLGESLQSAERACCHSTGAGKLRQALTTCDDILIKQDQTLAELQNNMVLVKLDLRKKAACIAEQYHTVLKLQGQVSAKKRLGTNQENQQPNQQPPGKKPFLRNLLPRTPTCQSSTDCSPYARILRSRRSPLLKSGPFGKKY

What was measured:
Experiment in all cases: co-IP; whole-cell lysates in RIPA buffer (50 mM Tris-HCl pH 8.0, 150 mM NaCl, 1% NP-40, 1 mM EDTA, 0.5% sodium deoxycholate, 0.1% SDS); HA- or V5-conjugated beads 4 hours at 4°C; 3 washes; Western blotting; MDA-MB-231 or HCC1806 cells
[1] = molecular target: V5-tagged SMARCA4 (UniProt P51532)
[2] = molecular target: HA-tagged KIF20A (kinesin family member 20A) (UniProt O95235)
[3] = molecular target: V5-tagged KIF20A (kinesin family member 20A) (UniProt O95235)

binding [1]: binds
Substance: HA-tagged KIF20A (kinesin family member 20A) (from UniProt O95235 1-890)

binding [2]: binds
Substance: V5-tagged SMARCA4 (from UniProt P51532 1-1647)

binding [3]: binds
Substance: endogenous SMARCA4 (from UniProt P51532 1-1647)
